These are yes or no findings as the source states them, for the method shown. For some of these results: In cells and extracts the contact can be indirect. Some binding calls cover weakened binding; strength is not graded here. For some of these results: Where a sequence is shown, tags or fusion partners need not be part of it.
Assays:
GST-USP5 = GST-USP5 (UniProt P45974); assay: pull-down; purified GST-tagged protein immobilised on glutathione beads and incubated with recombinant or purified protein; immunoblotting; both purified
overexpressed gp78 = overexpressed gp78 (UniProt Q9UKV5); assay: co-IP; sequential immunoprecipitation: extract of cells expressing FLAG-USP13 and untagged gp78, first FLAG beads, elution with FLAG peptide (0.2 mg/ml), then anti-gp78 or control antibody
FLAG-USP13 = molecular target: T1, FLAG-USP13 (UniProt Q92995); assay: co-IP; extracts of transfected cells (FLAG-tagged DUB or chimera, in part with gp78), immunoprecipitation with FLAG beads; NP40 lysis buffer; immunoblotting
T1 sequence: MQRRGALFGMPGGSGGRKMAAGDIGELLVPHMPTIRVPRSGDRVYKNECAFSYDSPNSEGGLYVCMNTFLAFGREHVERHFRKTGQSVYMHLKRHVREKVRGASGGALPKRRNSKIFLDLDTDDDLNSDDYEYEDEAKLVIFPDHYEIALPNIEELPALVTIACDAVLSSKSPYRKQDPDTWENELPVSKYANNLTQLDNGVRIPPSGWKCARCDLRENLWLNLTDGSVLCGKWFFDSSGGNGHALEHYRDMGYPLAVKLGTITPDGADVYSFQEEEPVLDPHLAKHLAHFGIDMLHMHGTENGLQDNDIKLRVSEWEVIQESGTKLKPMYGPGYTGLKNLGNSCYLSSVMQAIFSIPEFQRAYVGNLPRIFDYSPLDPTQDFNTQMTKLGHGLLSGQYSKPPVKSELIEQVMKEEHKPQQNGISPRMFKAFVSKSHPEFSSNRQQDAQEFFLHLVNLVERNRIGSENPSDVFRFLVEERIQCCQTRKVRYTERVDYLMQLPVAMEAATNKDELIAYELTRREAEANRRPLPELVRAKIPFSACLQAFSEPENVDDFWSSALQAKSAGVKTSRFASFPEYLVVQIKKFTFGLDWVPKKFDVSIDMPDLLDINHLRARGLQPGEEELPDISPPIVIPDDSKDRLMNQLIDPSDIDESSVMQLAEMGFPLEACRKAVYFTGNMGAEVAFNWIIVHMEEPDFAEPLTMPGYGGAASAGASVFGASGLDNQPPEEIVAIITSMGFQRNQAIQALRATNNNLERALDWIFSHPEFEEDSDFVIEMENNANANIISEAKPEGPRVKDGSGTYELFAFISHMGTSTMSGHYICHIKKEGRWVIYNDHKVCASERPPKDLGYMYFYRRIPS

Sequences of proteins named here, by UniProt entry; tags and fusion partners are left off.
UniProt P45974: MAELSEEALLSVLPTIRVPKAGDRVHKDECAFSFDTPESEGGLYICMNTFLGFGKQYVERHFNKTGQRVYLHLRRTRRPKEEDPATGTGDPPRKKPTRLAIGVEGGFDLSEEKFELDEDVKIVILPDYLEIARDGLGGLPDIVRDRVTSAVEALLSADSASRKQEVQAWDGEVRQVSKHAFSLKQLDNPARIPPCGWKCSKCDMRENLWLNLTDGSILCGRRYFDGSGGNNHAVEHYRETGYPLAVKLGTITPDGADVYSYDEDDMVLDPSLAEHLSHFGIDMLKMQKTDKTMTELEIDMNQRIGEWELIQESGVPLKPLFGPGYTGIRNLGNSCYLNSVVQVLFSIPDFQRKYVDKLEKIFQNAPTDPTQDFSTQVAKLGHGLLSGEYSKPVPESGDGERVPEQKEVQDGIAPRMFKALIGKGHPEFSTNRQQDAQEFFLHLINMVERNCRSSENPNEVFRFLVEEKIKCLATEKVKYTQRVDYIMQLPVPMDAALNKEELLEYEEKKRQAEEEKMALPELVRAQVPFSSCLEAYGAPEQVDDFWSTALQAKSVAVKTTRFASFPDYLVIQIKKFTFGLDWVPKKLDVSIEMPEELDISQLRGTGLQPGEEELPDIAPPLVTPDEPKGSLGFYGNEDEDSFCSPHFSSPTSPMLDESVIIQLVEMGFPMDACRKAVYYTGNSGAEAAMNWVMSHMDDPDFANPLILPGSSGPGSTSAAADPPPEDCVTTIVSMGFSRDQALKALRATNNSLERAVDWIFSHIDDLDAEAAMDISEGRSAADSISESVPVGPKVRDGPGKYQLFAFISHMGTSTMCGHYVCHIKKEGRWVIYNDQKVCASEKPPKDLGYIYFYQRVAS
UniProt Q9UKV5: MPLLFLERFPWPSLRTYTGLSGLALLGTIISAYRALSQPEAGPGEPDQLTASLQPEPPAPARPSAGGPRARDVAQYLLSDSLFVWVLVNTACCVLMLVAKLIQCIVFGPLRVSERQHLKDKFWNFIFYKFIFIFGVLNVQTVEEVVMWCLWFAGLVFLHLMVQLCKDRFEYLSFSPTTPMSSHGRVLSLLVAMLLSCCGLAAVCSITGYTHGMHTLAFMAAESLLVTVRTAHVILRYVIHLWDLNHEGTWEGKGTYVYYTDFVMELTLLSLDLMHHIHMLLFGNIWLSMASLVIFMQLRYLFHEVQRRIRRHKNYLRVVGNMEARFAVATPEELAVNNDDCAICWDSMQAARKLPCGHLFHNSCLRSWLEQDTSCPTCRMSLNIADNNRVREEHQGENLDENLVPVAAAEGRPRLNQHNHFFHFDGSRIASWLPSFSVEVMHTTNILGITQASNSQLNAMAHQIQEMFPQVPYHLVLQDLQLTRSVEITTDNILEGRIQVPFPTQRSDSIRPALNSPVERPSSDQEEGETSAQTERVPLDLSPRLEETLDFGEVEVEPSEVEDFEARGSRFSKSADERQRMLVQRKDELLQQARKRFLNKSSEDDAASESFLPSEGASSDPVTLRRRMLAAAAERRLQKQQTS
UniProt Q7L5D6: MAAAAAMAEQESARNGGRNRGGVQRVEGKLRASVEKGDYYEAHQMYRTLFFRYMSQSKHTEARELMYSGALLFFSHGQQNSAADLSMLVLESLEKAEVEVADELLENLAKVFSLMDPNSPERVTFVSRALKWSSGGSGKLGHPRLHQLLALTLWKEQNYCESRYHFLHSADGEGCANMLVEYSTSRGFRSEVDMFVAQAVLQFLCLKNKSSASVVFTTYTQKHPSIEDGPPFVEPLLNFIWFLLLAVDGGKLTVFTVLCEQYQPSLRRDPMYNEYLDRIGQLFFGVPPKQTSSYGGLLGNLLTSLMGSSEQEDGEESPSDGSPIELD
UniProt P35998: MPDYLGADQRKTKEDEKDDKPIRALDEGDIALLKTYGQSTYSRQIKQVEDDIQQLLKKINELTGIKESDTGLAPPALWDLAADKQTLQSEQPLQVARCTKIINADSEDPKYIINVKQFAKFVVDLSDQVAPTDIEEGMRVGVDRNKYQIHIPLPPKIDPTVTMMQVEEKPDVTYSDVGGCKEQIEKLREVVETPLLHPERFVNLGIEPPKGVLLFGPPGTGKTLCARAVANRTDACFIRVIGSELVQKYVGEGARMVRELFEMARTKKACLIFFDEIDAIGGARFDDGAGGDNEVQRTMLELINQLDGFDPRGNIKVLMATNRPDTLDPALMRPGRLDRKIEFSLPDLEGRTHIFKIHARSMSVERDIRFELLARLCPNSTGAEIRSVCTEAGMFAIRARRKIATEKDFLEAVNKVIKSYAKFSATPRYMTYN
UniProt P46379: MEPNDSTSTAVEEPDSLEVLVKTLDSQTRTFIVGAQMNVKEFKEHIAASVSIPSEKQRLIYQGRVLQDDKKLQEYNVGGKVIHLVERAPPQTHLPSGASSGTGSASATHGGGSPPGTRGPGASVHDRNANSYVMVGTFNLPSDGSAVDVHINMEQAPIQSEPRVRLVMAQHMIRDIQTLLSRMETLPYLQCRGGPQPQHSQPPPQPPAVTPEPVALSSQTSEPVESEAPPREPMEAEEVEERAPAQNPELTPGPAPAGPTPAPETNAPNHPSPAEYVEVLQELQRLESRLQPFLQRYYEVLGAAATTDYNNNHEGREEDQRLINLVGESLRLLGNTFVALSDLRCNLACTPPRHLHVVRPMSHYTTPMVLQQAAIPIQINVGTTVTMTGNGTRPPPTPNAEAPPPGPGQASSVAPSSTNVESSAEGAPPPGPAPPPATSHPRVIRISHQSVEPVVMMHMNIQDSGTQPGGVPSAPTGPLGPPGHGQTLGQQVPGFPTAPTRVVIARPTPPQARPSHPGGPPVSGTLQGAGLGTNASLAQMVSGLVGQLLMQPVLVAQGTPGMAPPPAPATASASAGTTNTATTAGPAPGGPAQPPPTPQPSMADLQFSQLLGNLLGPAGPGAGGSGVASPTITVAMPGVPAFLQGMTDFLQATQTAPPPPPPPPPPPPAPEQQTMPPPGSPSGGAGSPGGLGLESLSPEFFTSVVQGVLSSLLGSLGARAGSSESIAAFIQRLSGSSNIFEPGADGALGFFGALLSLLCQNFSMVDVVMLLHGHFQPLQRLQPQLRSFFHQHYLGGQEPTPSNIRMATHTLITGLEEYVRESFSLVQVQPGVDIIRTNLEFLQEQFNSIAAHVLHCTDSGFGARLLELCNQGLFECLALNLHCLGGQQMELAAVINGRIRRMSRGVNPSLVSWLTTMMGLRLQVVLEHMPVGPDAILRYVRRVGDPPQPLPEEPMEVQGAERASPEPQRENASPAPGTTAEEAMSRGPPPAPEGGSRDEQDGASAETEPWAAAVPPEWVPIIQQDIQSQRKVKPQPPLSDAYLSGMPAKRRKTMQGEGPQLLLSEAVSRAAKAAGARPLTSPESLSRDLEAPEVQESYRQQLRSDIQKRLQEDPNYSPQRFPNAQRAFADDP

GST-USP13 = molecular target: T2, GST-USP13 (UniProt Q92995); assay: pull-down; glutathione beads with purified GST-tagged protein incubated with whole cell extracts (control, gp78-expressing, gp78 knock-down or knock-out cells; depletion of gp78 reduced the USP13-p97 interaction threefold to fourfold and did not affect USP13-Bag6); immunoblotting; only the target purified
T2 sequence: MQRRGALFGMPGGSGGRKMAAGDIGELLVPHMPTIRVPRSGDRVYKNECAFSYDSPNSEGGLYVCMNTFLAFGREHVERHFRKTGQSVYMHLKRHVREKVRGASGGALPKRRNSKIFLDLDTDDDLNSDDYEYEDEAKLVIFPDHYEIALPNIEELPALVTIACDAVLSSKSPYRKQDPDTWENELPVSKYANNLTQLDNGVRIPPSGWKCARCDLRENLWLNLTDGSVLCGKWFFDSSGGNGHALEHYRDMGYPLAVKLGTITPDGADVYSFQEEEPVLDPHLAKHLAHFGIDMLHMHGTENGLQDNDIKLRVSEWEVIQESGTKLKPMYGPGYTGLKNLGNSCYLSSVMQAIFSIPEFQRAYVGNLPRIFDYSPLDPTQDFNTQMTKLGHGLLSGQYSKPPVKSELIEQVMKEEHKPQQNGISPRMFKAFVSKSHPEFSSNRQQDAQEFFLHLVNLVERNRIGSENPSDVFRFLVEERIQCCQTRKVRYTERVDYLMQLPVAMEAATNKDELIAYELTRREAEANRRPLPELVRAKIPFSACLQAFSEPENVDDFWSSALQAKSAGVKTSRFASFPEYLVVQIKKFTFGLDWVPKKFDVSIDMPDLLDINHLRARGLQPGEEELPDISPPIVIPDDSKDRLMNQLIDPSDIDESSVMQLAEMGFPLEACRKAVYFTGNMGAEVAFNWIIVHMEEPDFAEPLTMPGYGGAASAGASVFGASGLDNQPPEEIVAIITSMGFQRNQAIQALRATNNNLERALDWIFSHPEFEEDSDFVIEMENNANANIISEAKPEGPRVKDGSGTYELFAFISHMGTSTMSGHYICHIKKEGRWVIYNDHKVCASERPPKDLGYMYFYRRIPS

[1] = molecular target: T3, endogenous USP13 (human (endogenous in HEK293)) (UniProt Q92995); assay: co-IP; whole cell extract, immunoprecipitation with control or anti-USP13 antibodies; all proteins endogenous; immunoblotting
T3 sequence: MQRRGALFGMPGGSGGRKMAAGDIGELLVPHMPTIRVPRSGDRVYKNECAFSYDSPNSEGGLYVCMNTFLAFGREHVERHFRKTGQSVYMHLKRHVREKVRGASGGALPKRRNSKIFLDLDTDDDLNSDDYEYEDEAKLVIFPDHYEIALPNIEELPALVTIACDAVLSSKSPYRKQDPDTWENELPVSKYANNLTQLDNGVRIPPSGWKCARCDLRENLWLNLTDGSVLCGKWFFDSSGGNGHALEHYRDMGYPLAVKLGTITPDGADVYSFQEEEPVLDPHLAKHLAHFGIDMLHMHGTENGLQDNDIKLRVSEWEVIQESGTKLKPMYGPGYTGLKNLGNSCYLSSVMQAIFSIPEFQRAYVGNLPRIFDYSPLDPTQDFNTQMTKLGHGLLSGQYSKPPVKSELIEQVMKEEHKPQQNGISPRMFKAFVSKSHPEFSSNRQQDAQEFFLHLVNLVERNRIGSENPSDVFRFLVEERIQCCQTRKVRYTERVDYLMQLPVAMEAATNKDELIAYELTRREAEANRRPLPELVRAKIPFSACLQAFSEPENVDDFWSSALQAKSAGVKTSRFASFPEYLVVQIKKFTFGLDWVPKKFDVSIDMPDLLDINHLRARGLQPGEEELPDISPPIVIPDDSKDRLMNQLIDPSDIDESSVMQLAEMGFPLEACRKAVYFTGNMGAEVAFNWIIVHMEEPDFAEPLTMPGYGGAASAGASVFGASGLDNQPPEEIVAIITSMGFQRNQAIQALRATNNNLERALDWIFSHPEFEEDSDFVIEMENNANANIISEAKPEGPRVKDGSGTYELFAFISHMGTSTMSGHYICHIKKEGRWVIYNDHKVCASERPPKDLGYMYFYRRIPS

FLAG-USP13 C345S = molecular target: T4, FLAG-USP13 C345S (UniProt Q92995); assay: co-IP; extracts of transfected cells (FLAG-tagged DUB or chimera, in part with gp78), immunoprecipitation with FLAG beads; NP40 lysis buffer; immunoblotting
T4 sequence: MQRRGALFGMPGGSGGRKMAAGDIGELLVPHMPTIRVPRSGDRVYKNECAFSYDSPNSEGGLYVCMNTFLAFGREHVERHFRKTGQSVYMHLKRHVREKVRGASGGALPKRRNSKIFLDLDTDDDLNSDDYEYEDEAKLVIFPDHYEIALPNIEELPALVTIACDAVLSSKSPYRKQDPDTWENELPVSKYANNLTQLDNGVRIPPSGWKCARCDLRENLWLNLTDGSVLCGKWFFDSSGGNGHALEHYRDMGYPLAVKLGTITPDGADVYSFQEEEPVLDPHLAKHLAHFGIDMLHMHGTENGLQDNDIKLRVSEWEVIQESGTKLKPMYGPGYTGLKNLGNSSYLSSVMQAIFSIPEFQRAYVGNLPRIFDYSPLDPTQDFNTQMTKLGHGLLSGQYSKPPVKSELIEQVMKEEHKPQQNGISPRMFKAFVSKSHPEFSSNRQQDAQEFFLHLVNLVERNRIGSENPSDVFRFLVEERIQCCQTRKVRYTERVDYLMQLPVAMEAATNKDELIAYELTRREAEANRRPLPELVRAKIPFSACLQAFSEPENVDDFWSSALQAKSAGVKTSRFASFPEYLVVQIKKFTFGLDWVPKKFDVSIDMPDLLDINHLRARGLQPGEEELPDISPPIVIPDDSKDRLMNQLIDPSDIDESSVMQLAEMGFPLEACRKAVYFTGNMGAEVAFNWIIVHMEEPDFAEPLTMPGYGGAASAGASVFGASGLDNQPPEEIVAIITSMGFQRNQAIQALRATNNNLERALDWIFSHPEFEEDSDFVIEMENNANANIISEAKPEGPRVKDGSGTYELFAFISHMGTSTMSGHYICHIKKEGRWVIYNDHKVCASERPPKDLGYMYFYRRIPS

Row | binding (overexpressed gp78) | binding (FLAG-USP13) | binding (GST-USP13) | binding (FLAG-USP13 C345S) | Substance | further results
1 |  |  |  |  | recombinant p97 (from UniProt P55072 1-806) (enzyme) | binding (GST-USP5): no binding
2 | binds | binds |  |  | endogenous Trc35 (from UniProt Q7L5D6 1-327) | 
3 |  |  | binds |  | MMS1 (from UniProt P35998 1-433) | 
4 | binds | binds | binds | binds | endogenous Bag6 (from UniProt P46379 1-1132) | binding [1]: binds
5 |  |  |  | binds | endogenous gp78 (from UniProt Q9UKV5 1-643) (enzyme) | 

From publication PMC3889402
